In paper PMC7181755:
No constants are given. Whether binding was seen depends on the method and setting. In cells and extracts the contact can be indirect. Some results given as binding are weak or reduced against the parent protein; the word gives no strength. Where a sequence is shown, tags or fusion partners need not be part of it.

T1: 3×Flag-tagged GSDME (UniProt O60443)
T1 sequence: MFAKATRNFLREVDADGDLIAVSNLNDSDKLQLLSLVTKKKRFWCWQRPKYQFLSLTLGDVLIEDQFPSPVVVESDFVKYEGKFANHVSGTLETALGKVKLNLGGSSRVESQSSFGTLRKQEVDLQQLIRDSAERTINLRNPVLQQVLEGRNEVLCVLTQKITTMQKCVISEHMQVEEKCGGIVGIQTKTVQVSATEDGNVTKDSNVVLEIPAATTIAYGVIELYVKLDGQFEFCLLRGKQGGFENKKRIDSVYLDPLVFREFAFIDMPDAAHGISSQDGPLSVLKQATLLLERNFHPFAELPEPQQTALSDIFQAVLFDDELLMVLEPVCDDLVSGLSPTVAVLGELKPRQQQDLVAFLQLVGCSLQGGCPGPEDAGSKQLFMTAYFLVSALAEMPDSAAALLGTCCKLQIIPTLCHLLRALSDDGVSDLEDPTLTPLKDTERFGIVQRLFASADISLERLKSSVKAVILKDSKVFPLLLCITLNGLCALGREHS

B1: HA-tagged ZDHHC15 (enzyme, UniProt Q96MV8 1-337)
chain: MRRGWKMALSGGLRCCRRVLSWVPVLVIVLVVLWSYYAYVFELCLVTVLSPAEKVIYLILYHAIFVFFTWTYWKSIFTLPQQPNQKFHLSYTDKERYENEERPEVQKQMLVDMAKKLPVYTRTGSGAVRFCDRCHLIKPDRCHHCSVCAMCVLKMDHHCPWVNNCIGFSNYKFFLQFLAYSVLYCLYIATTVFSYFIKYWRGELPSVRSKFHVLFLLFVACMFFVSLVILFGYHCWLVSRNKTTLEAFCTPVFTSGPEKNGFNLGFIKNIQQVFGDKKKFWLIPIGSSPGDGHSFPMRSMNESQNPLLANEETWEDNEDDNQDYPEGSSSLAVETET
B2: HA-tagged ZDHHC22 (enzyme, UniProt Q8N966 1-263)
chain: MLALRLLNVVAPAYFLCISLVTFVLQLFLFLPSMREDPAAARLFSPALLHGALFLFLSANALGNYVLVIQNSPDDLGACQGASARKTPCPSPSTHFCRVCARVTLRHDHHCFFTGNCIGSRNMRNFVLFCLYTSLACLYSMVAGVAYISAVLSISFAHPLAFLTLLPTSISQFFSGAVLGSEMFVILMLYLWFAIGLACAGFCCHQLLLILRGQTRHQVRKGVAVRARPWRKNLQEVFGKRWLLGLLVPMFNVGSESSKQQDK
B3: HA-tagged ZDHHC23 (enzyme, UniProt Q8IYP9 1-409)
chain: MTQKGSMKPVKKKKTEEPELEPLCCCEYIDRNGEKNHVATCLCDCQDLDEGCDRWITCKSLQPETCERIMDTISDRLRIPWLRGAKKVNISIIPPLVLLPVFLHVASWHFLLGVVVLTSLPVLALWYYYLTHRRKEQTLFFLSLGLFSLGYMYYVFLQEVVPKGRVGPVQLAVLTCGLFLILLALHRAKKNPGYLSNPASGDRSLSSSQLECLSRKGQEKTKGFPGADMSGSLNNRTTKDDPKGSSKMPAGSPTKAKEDWCAKCQLVRPARAWHCRICGICVRRMDHHCVWINSCVGESNHQAFILALLIFLLTSVYGITLTLDTICRDRSVFTALFYCPGVYANYSSALSFTCVWYSVIITAGMAYIFLIQLINISYNVTEREVQQALRQKTGRRLLCGLIVDTGLLG
B4: HA-tagged ZDHHC4 (enzyme, UniProt Q9NPG8 1-344)
chain: MDFLVLFLFYLASVLMGLVLICVCSKTHSLKGLARGGAQIFSCIIPECLQRAVHGLLHYLFHTRNHTFIVLHLVLQGMVYTEYTWEVFGYCQELELSLHYLLLPYLLLGVNLFFFTLTCGTNPGIITKANELLFLHVYEFDEVMFPKNVRCSTCDLRKPARSKHCSVCNWCVHRFDHHCVWVNNCIGAWNIRYFLIYVLTLTASAATVAIVSTTFLVHLVVMSDLYQETYIDDLGHLHVMDTVFLIQYLFLTFPRIVFMLGFVVVLSFLLGGYLLFVLYLAATNQTTNEWYRGDWAWCQRCPLVAWPPSAEPQVHRNIHSHGLRSNLQEIFLPAFPCHERKKQE
B5: HA-tagged ZDHHC6 (enzyme, UniProt Q9H6R6 1-413)
chain: MGTFCSVIKFENLQELKRLCHWGPIIALGVIAICSTMAMIDSVLWYWPLHTTGGSVNFIMLINWTVMILYNYFNAMFVGPGFVPLGWKPEISQDTMYLQYCKVCQAYKAPRSHHCRKCNRCVMKMDHHCPWINNCCGYQNHASFTLFLLLAPLGCIHAAFIFVMTMYTQLYHRLSFGWNTVKIDMSAARRDPLPIVPFGLAAFATTLFALGLALGTTIAVGMLFFIQMKIILRNKTSIESWIEEKAKDRIQYYQLDEVFVFPYDMGSRWRNFKQVFTWSGVPEGDGLEWPVREGCHQYSLTIEQLKQKADKRVRSVRYKVIEDYSGACCPLNKGIKTFFTSPCTEEPRIQLQKGEFILATRGLRYWLYGDKILDDSFIEGVSRIRGWFPRKCVEKCPCDAETDQAPEGEKKNR
B6: HA-tagged ZDHHC7 (enzyme, UniProt Q9NXF8 1-308)
chain: MQPSGHRLRDVEHHPLLAENDNYDSSSSSSSEADVADRVWFIRDGCGMICAVMTWLLVAYADFVVTFVMLLPSKDFWYSVVNGVIFNCLAVLALSSHLRTMLTDPGAVPKGNATKEYMESLQLKPGEVIYKCPKCCCIKPERAHHCSICKRCIRKMDHHCPWVNNCVGEKNQRFFVLFTMYIALSSVHALILCGFQFISCVRGQWTECSDFSPPITVILLIFLCLEGLLFFTFTAVMFGTQIHSICNDETEIERLKSEKPTWERRLRWEGMKSVFGGPPSLLWMNPFVGFRFRRLPTRPRKGGPEFSV
B7: HA-tagged ZDHHC11 (enzyme, UniProt Q9H8X9 1-412)
chain: MDTRSGSQCSVTPEAILNNEKLVLPPRISRVNGWSLPLHYFQVVTWAVFVGLSSATFGIFIPFLPHAWKYIAYVVTGGIFSFHLVVHLIASCIDPADSNVRLMKNYSQPMPLFDRSKHAHVIQNQFCHLCKVTVNKKTKHCISCNKCVSGFDHHCKWINNCVGSRNYWFFFSTVASATAGMLCLIAILLYVLVQYLVNPGVLRTDPRYEDVKNMNTWLLFLPLFPVQVQTLIVVIIGMLVLLLDFLGLVHLGQLLIFHIYLKAKKMTTFEYLINNRKEESSKHQAVRKDPYVQMDKGVLQQGAGALGSSAQGVKAKSSLLIHKHLCHFCTSVNQDGDSTAREGDEDPCPSALGAKARNSRLICRRLCQFSTRVHPDGGSMAQEADDAPSISTLGLQQETTEPMKTDSAESED
B8: HA-tagged ZDHHC12 (enzyme, UniProt Q96GR4 1-267)
chain: MAPWALLSPGVLVRTGHTVLTWGITLVLFLHDTELRQWEEQGELLLPLTFLLLVLGSLLLYLAVSLMDPGYVNVQPQPQEELKEEQTAMVPPAIPLRRCRYCLVLQPLRARHCRECRRCVRRYDHHCPWMENCVGERNHPLFVVYLALQLVVLLWGLYLAWSGLRFFQPWGQWLRSSGLLFATFLLLSLFSLVASLLLVSHLYLVASNTTTWEFISSHRIAYLRQRPSNPFDRGLTRNLAHFFCGWPSGSWETLWAEEEEEGSSPAV

The binders below were run against T1, 3×Flag-tagged GSDME (assay: co-IP; 3×Flag-GSDME and HA-tagged ZDHHCs co-transfected into 293T cells; precipitation with anti-Flag antibody (Flag magnetic beads), 4 °C overnight; 20 mM Tris pH 7.5, 150 mM NaCl, 1% Triton X-100; western blot).

Q: B1 was tested. Which binding did it give?
A: binds

Q: Which binding does the source give for B2 here?
A: binds

Q: Which binding does the source give for B3 here?
A: binds

Q: Which binding does the source give for B4 here?
A: binds

Q: Which binding does the source give for B5 here?
A: binds

Q: B6 was tested. Which binding did it give?
A: binds

Q: B7 was tested. Which binding did it give?
A: binds

Q: B8 was tested. Which binding did it give?
A: binds
